Results taken from the supplement of paper PMC10849652.
This is one part of the list.

By UniProt entry, the sequences of proteins in these tests, tags left out. Where a name states a change or a piece, a line headed by the entry shows the natural chain unless it says otherwise.
UniProt Q92616, whole entry, looked up: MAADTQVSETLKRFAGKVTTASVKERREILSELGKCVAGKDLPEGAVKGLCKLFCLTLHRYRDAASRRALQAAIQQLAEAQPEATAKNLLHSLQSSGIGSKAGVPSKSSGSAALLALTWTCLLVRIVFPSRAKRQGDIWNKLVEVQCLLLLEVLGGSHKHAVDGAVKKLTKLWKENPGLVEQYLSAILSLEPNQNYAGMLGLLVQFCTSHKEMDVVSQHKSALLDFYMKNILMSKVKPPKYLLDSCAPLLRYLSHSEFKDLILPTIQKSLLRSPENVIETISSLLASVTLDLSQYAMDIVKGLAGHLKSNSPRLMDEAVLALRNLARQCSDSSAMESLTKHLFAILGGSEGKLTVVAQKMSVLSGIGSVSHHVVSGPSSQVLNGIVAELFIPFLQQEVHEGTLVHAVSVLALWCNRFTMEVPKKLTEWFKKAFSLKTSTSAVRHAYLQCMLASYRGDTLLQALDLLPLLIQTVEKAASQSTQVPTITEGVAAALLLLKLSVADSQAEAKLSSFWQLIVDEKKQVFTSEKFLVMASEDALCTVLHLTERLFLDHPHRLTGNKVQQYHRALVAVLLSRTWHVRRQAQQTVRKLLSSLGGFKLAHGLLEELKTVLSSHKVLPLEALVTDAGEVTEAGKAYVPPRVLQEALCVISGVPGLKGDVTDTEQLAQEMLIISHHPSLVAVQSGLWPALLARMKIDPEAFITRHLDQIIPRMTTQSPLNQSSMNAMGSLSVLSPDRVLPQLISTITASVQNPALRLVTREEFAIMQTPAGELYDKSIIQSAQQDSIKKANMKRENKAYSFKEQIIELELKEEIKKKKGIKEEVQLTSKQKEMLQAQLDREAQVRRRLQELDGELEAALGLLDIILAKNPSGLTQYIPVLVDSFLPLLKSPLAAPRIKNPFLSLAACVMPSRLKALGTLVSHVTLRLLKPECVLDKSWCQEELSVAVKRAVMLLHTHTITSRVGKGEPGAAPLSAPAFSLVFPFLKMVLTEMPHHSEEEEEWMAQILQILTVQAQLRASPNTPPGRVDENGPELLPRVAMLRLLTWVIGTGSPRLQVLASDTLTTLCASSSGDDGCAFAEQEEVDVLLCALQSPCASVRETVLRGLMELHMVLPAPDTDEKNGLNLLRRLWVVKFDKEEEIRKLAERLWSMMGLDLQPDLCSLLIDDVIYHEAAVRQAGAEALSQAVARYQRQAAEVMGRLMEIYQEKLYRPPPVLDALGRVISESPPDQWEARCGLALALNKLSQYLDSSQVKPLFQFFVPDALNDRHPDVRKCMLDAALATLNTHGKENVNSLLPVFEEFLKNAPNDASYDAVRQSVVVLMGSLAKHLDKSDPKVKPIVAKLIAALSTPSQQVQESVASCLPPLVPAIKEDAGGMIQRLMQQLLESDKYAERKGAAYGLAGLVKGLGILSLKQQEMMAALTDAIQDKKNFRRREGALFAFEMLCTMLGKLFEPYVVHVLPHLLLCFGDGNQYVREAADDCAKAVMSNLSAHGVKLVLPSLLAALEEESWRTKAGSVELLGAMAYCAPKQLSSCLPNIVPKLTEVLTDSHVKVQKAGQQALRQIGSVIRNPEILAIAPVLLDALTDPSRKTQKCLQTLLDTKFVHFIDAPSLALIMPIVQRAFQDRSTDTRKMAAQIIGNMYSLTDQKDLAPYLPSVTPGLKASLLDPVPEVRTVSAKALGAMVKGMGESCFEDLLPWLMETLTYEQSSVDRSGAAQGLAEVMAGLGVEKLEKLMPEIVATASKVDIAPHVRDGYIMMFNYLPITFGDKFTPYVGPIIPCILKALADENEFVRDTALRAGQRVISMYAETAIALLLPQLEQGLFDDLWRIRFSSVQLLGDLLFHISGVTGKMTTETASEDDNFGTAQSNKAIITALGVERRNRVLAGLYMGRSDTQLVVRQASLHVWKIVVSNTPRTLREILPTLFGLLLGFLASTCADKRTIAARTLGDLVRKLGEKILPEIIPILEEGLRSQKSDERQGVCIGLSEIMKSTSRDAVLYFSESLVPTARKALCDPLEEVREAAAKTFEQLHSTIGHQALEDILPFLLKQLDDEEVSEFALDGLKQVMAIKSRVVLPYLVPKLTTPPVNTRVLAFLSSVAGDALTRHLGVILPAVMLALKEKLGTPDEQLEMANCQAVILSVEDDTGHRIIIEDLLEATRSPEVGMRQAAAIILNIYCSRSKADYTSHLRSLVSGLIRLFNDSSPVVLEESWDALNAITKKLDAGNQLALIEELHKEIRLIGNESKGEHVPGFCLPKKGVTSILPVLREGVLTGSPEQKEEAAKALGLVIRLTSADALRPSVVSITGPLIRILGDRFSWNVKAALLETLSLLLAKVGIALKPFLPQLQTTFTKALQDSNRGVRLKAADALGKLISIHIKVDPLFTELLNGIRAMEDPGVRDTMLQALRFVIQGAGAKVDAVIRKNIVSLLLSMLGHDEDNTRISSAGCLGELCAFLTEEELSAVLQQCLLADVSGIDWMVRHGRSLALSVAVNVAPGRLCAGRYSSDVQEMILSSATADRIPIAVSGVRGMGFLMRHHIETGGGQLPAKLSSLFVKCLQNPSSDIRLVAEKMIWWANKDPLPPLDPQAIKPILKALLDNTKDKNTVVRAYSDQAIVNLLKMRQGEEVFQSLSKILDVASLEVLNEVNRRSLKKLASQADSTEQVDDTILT
UniProt Q9BWH2: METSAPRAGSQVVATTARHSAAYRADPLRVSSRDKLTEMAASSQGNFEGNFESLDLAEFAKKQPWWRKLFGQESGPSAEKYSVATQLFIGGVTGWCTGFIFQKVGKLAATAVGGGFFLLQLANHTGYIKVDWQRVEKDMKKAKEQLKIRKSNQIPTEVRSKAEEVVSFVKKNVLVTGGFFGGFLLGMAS
UniProt P28676: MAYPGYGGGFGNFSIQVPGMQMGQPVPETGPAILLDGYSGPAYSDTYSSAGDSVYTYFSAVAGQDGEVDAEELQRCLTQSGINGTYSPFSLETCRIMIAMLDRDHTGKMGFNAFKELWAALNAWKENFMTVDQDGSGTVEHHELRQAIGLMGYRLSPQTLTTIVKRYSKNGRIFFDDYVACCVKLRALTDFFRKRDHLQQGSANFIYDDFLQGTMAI
UniProt P15976: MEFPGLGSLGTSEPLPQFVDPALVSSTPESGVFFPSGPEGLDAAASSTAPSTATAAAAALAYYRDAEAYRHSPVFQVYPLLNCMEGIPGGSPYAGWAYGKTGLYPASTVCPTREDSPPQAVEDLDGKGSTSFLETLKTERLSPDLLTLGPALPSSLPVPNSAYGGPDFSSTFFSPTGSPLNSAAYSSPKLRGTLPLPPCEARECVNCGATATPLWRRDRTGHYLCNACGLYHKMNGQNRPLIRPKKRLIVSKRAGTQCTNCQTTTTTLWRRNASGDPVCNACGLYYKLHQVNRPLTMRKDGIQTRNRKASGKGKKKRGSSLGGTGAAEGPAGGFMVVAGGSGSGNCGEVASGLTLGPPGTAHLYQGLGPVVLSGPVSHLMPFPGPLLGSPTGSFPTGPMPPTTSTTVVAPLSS
UniProt Q9NWZ8: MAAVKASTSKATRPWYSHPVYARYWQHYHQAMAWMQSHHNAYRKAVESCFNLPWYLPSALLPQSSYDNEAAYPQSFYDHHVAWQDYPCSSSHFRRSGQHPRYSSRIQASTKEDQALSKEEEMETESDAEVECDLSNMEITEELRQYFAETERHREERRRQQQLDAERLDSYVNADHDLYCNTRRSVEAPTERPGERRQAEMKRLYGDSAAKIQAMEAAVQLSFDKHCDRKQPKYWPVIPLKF
UniProt O43716: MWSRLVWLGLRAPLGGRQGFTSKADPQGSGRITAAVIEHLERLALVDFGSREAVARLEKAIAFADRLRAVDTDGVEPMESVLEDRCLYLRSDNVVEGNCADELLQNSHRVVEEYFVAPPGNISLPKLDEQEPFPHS
UniProt A2VDF0: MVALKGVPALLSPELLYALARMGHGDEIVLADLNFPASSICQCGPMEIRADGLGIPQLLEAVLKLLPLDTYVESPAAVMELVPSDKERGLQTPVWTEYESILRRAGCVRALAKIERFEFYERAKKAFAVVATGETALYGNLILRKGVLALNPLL
UniProt Q5JV73, whole entry, looked up: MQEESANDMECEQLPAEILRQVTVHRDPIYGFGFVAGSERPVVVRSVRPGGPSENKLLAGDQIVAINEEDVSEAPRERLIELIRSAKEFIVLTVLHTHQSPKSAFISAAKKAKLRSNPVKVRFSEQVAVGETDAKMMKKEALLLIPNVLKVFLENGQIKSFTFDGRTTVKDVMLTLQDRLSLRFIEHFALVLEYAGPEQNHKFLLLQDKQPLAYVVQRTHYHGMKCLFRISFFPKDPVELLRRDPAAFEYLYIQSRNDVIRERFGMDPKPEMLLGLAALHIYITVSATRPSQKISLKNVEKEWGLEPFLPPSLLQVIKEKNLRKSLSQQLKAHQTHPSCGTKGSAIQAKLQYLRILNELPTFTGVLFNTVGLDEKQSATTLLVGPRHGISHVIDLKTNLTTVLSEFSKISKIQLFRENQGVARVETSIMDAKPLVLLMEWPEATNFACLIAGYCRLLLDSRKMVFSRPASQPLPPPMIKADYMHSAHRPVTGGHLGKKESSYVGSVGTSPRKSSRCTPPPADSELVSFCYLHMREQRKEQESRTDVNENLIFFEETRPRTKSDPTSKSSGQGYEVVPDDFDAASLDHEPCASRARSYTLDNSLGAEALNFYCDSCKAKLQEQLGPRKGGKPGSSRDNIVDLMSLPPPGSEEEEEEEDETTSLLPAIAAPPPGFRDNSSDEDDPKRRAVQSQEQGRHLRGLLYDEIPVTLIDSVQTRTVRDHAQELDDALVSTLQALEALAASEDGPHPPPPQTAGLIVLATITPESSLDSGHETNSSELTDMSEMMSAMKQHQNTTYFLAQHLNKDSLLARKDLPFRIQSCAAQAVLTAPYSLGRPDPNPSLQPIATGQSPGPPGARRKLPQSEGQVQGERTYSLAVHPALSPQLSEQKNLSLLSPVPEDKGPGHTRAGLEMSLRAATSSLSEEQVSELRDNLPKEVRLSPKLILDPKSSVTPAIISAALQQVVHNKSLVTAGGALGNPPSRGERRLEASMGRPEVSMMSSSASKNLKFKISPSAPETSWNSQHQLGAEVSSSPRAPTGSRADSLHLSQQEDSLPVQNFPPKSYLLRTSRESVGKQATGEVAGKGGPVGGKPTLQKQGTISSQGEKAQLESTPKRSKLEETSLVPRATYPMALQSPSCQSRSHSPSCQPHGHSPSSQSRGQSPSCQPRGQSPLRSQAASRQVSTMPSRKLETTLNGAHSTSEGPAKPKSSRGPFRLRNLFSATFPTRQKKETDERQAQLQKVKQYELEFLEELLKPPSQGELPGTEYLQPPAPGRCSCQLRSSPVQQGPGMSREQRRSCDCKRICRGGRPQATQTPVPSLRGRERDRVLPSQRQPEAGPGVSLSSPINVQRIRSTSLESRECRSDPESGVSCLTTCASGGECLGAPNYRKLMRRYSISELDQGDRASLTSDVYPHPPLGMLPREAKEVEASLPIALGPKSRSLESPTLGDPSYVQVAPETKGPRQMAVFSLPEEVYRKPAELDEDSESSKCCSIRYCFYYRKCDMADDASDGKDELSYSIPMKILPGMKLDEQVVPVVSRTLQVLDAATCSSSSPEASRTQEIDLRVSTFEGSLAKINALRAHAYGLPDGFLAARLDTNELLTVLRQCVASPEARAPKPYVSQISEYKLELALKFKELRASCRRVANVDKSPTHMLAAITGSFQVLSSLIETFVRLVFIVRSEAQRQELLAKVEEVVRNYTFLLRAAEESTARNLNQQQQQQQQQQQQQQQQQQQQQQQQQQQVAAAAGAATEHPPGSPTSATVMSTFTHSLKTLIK
UniProt Q9NZC3: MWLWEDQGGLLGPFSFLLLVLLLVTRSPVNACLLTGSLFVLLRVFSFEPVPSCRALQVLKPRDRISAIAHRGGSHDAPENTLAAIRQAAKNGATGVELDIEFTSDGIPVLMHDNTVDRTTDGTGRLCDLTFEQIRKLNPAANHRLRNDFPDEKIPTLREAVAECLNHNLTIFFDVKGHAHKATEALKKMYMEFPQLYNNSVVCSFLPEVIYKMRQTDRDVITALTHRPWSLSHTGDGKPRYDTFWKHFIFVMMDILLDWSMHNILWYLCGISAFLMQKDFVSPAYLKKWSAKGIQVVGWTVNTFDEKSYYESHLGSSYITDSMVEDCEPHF
UniProt Q06547, whole entry, looked up: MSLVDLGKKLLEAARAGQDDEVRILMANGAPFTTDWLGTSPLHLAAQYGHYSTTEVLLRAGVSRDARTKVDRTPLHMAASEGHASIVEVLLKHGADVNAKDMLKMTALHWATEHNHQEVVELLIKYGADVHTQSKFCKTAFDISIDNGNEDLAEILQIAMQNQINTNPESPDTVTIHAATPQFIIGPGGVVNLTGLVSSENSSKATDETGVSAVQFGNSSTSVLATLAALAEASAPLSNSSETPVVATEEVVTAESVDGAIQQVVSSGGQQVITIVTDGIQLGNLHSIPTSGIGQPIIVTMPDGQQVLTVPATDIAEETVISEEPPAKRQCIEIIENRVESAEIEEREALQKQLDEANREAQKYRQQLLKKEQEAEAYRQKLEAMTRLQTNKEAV

Tests used:
Assay in all cases: log2 fold change, soluble protein after heating vs DMSO (PISA); higher = thermal stabilisation; K562 lysate, 10 uM; active = over 0.2 and 3.5 SD of the protein, either way, in both replicates (recomputed)
[1] = compound: CN1CC[C@H](c2c(O)cc(O)c3c(=O)cc(-c4ccccc4Cl)oc23)[C@H](O)C1 [alvocidib]
Procedure, shortened: (§1)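 Pellets of K562 cells were dounce-homogenised in PBS pH 7.4 with 1 mM MgCl2, and the crude extract was held at 1 mg/mL protein for a 30 min treatment with 10 μM compound. Aliquots were heated for 3 min over 48°C-58°C and pooled before NP-40 was added to 0.5% at 4°C. The supernatant from 21,000xg for 90 min was quantified by TMTpro 16plex LC-MS/MS with channel sums equalised. Values are reported from duplicates as log-two fold change in thermal stability relative to solvent controls.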

[2] = compound: CN1CCc2c(c3ccccc3n2Cc2ccc(C(=O)NO)cc2)C1 [Tubastatin A]
Procedure, shortened: as §1

[3] = compound: CNC(=O)C1=CC=CC=C1NC2=NC(=NC=C2Cl)NC3=C(C=C(C=C3)N4CCOCC4)OC
Procedure, shortened: as §1

[4] = compound: CNC(=O)c1ccc(Nc2ncc(C(F)(F)F)c(NCc3nccnc3N(C)S(C)(=O)=O)n2)cc1 [defactinib]
Procedure, shortened: as §1

[5] = compound: CNc1nc(-c2ccc3c(N)n[nH]c3c2)cc(N2C[C@@H](C(=O)NC3CCCCC3)CC[C@H]2C)n1
Procedure, shortened: as §1

[6] = compound: COC(=O)N[C@@H](C)CNc1nccc(-c2cn(C(C)C)nc2-c2cc(Cl)cc(NS(C)(=O)=O)c2F)n1 [encorafenib]
Procedure, shortened: as §1

[7] = compound: COC(=O)[C@H](CCSC)NC(=O)C1=C(C=C(C=C1)NC[C@H](CS)N)C2=CC=CC=C2
Procedure, shortened: as §1

[8] = compound: COc1cc(Nc2ncc3c(n2)-c2ccc(Cl)cc2C(c2c(F)cccc2OC)=NC3)ccc1C(=O)O [alisertib]
Procedure, shortened: as §1

[9] = compound: COc1cc2nc(-c3cc(F)ccc3O)nc(N[C@@H]3CNC[C@H]3C(C)(C)O)c2cc1OC
Procedure, shortened: as §1

[10] = compound: COc1cc2ncnc(Nc3ccc(F)c(Cl)c3)c2cc1OCCCN1CCOCC1 [gefitinib]
Procedure, shortened: as §1

[11] = compound: CS(=O)(=O)CCNCc1ccc(-c2ccc3ncnc(Nc4ccc(OCc5cccc(F)c5)c(Cl)c4)c3c2)o1 [lapatinib]
Procedure, shortened: as §1

[12] = compound: CS(=O)(=O)N1CCN(Cc2cc3nc(-c4cccc5[nH]ncc45)nc(N4CCOCC4)c3s2)CC1 [pictilisib]
Procedure, shortened: as §1

[13] = compound: C[C@@H](Oc1cc(-c2cnn(C3CCNCC3)c2)cnc1N)c1c(Cl)ccc(F)c1Cl [crizotinib]
Procedure, shortened: as §1

[14] = compound: C[C@H](C1=CC=C(C=C1)C(=O)NC2=C3C=CNC3=NC=C2)N
Procedure, shortened: as §1

[15] = compound: C[C@H](Nc1ncnc2nc[nH]c12)c1cc2cccc(Cl)c2c(=O)n1-c1ccccc1 [duvelisib]
Procedure, shortened: as §1

[16] = compound: Cc1cc(Nc2cc(CN3CCOCC3)c3nc(C)c(Cc4ccc(Cl)cc4F)n3n2)n[nH]1 [gandotinib]
Procedure, shortened: as §1

[17] = compound: Cc1cc(Nc2cc(N3CCN(C)CC3)nc(Sc3ccc(NC(=O)C4CC4)cc3)n2)n[nH]1 [tozasertib]
Procedure, shortened: as §1

[18] = compound: Cc1ccc(-n2nc(C(C)(C)C)cc2NC(=O)Nc2ccc(OCCN3CCOCC3)c3ccccc23)cc1 [doramapimod]
Procedure, shortened: as §1

[19] = compound: Cc1ccc(NC(=O)c2ccc(CN3CC[C@H](N(C)C)C3)c(C(F)(F)F)c2)cc1Nc1nccc(-c2cncnc2)n1 [bafetinib]
Procedure, shortened: as §1

[20] = compound: Cc1cccc(CC(=O)N2CCc3c2ccc(-c2cn(C)c4ncnc(N)c24)c3F)n1
Procedure, shortened: as §1

Measured: log2 fold change

GCN1 (UniProt Q92616)
inactive: [1] 0.036 | [2] -0.181 | [3] 0.001 | [4] 0.037 | [5] -0.023 | [6] 0.014 | [7] 0.147 | [8] 0.023 | [9] 0.006 | [10] -0.004 | [11] -0.034 | [12] -0.027 | [13] -0.125 | [14] -0.002 | [15] 0.008 | [16] -0.121 | [17] 0.017 | [18] 0.019 | [19] -0.049 | [20] 0.053

FUNDC2 (UniProt Q9BWH2)
inactive: [1] -0.022 | [2] 0.01 | [3] 0.001 | [4] -0.056 | [5] -0.018 | [6] -0.059 | [7] -0.012 | [8] -0.014 | [9] -0.002 | [10] 0.025 | [11] -0.012 | [12] -0.007 | [13] 0.022 | [14] -0.046 | [15] -0.006 | [16] 0.078 | [17] -0.035 | [18] -0.046 | [19] -0.013 | [20] 0.038

GDI2 (UniProt P50395)
inactive: [1] 0.048 | [2] 0.043 | [3] -0.023 | [4] 0.004 | [5] -0.021 | [6] -0.033 | [7] 0.014 | [8] 0.02 | [9] 0.01 | [10] -0.043 | [11] 0.024 | [12] 0.027 | [13] 0.032 | [14] 0.15 | [15] -0.008 | [16] -0.072 | [17] 0.002 | [18] -0.028 | [19] 0.139 | [20] -0.062

GCA (UniProt P28676)
inactive: [1] -0.016 | [3] -0.035 | [8] -0.038 | [9] -0.253 | [10] -0.197 | [11] 0.016 | [14] -0.091 | [16] -0.073 | [20] 0.057

FUT11 (UniProt Q495W5)
inactive: [1] 0.011 | [2] -0.055 | [3] 0.051 | [6] -0.159 | [7] 0.004 | [8] 0.049 | [9] 0.26 | [10] 0.035 | [11] -0.027 | [12] 0.338 | [13] -0.015 | [14] 0.087 | [16] 0.041 | [17] -0.145 | [18] 0.004 | [19] 0.051 | [20] -0.054

FZD1 (UniProt Q9UP38)
inactive: [1] -0.064 | [2] 0.071 | [8] 0.167 | [10] 0.04 | [13] 0.095 | [14] 0.04 | [16] -0.018 | [18] 0.068 | [20] 0.066

GABPB2 (UniProt Q8TAK5)
inactive: [1] -0.084 | [2] -0.049 | [5] 0.173 | [6] 0.273 | [7] 0.067 | [12] -0.153 | [13] -0.013 | [14] -0.116 | [15] -0.056 | [16] -0.067 | [17] 0 | [18] 0.174 | [19] 0.107 | [20] 0.034

GAA (UniProt P10253)
active: [4] -0.513
inactive: [1] -0.006 | [2] 0.098 | [3] -0.047 | [6] 0.097 | [7] -0.15 | [8] -0.117 | [9] 0.089 | [10] -0.043 | [11] 0.083 | [12] 0.034 | [13] -0.098 | [14] -0.018 | [16] 0.04 | [17] -0.027 | [18] -0.099 | [19] 0.081 | [20] -0.04

GATA1 (UniProt P15976)
inactive: [1] -0.016 | [2] -0.065 | [3] 0.025 | [5] -0.003 | [8] 0.013 | [9] -0.005 | [10] -0.015 | [11] 0.006 | [12] 0.121 | [13] -0.031 | [14] 0.073 | [15] -0.074 | [16] 0.042 | [18] 0.017 | [19] 0.001 | [20] 0.019

GEMIN8 (UniProt Q9NWZ8)
inactive: [1] 0.017 | [2] -0.027 | [3] -0.005 | [4] 0.083 | [6] 0.049 | [7] -0.147 | [8] 0.017 | [9] 0.123 | [10] -0.049 | [11] -0.071 | [12] -0.009 | [13] 0.011 | [14] 0.066 | [16] -0.166 | [17] -0.352 | [18] -0.028 | [19] -0.043 | [20] -0.024

GAS6 isoform 1 (UniProt Q14393)
inactive: [1] -0.05 | [3] -0.144 | [6] 0.149 | [7] -0.072 | [9] 0.176 | [11] -0.225 | [12] -0.07 | [13] -0.233 | [14] -0.348 | [16] -0.012 | [17] 0.022 | [18] -0.194 | [19] 0.046 | [20] 0.094

GATC (UniProt O43716)
inactive: [1] -0.018 | [2] 0.055 | [3] -0.003 | [4] 0.153 | [5] 0.066 | [6] 0.006 | [7] 0.03 | [8] 0.001 | [9] -0.078 | [10] -0.09 | [11] 0.007 | [13] 0.105 | [14] 0.117 | [15] 0.051 | [16] -0.045 | [17] -0.03 | [18] 0.081 | [20] -0.019

GATB (UniProt O75879)
inactive: [1] -0.028 | [2] -0.128 | [4] 0.147 | [5] -0.011 | [8] 0.052 | [9] -0.075 | [10] -0.003 | [11] -0.169 | [14] 0.011 | [15] -0.087 | [16] 0.001 | [20] 0.128

FRMPD2 (UniProt Q68DX3)
inactive: [1] -0.126 | [3] 0.049 | [4] -0.093 | [6] 0.106 | [7] 0 | [8] 0.041 | [9] 0.086 | [10] -0.069 | [11] -0.084 | [14] -0.407 | [16] -0.509 | [17] 0.122 | [20] 0.087

FUOM (UniProt A2VDF0)
inactive: [1] -0.028 | [2] 0.119 | [3] 0.082 | [4] -0.059 | [5] 0.075 | [6] -0.071 | [7] -0.046 | [8] -0.026 | [9] 0.021 | [10] -0.034 | [11] 0.017 | [14] -0.061 | [15] 0.166 | [16] 0.235 | [17] 0.09 | [20] 0.212

Fetched one by one from the entries so far (two):
FZD1 (UniProt Q9UP38)
inactive: [1] -0.064 | [2] 0.071 | [8] 0.167 | [10] 0.04 | [13] 0.095 | [14] 0.04 | [16] -0.018 | [18] 0.068 | [20] 0.066

GDI2 (UniProt P50395)
inactive: [1] 0.048 | [2] 0.043 | [3] -0.023 | [4] 0.004 | [5] -0.021 | [6] -0.033 | [7] 0.014 | [8] 0.02 | [9] 0.01 | [10] -0.043 | [11] 0.024 | [12] 0.027 | [13] 0.032 | [14] 0.15 | [15] -0.008 | [16] -0.072 | [17] 0.002 | [18] -0.028 | [19] 0.139 | [20] -0.062

Later entries:

FRMPD3 (UniProt Q5JV73)
inactive: [1] -0.152 | [2] 0.077 | [3] -0.143 | [4] -0.027 | [8] 0.155 | [9] -0.051 | [10] 0.216 | [11] 0.07 | [12] -0.002 | [14] -0.245 | [16] 0.046 | [19] -0.296 | [20] 0.108

GDE1 (UniProt Q9NZC3)
active: [14] 0.842 | [16] -0.434 | [20] -0.409
inactive: [1] 0.307 | [2] -0.047 | [3] 0.014 | [5] 0.024 | [6] -0.045 | [7] -0.02 | [9] -0.038 | [11] -0.016 | [12] 0.114 | [13] -0.005 | [15] 0.049 | [17] 0.157 | [18] -0.017 | [19] -0.041

GABPB1 isoform 3 (UniProt Q06547)
inactive: [1] -0.013 | [3] -0.055 | [4] -0.025 | [5] -0.039 | [6] -0.006 | [7] 0.099 | [9] 0.016 | [11] -0.057 | [12] -0.086 | [13] 0.001 | [14] -0.007 | [15] 0.068 | [16] 0 | [17] -0.001 | [18] -0.029 | [19] -0.149 | [20] 0.043
active: [2] -0.299

FOXP1 (UniProt Q9H334)
inactive: [1] -0.004 | [2] -0.101 | [3] 0.014 | [4] -0.013 | [5] -0.021 | [6] 0.1 | [7] 0.01 | [8] 0.007 | [10] -0.067 | [12] -0.079 | [13] -0.016 | [14] -0.003 | [15] 0 | [16] -0.095 | [17] -0.043 | [18] -0.045 | [19] -0.006 | [20] 0.042

GC isoform 3 (UniProt P02774)
inactive: [1] 0.105 | [2] 0.087 | [4] -0.003 | [5] 0.244 | [6] -0.018 | [7] -0.049 | [13] 0.029 | [14] 0.173 | [15] 0.133 | [16] -0.025 | [17] -0.004 | [18] -0.081 | [20] -0.075
